Measured values: the supplement of paper PMC4635364
Counter-ions that a name gives are not always drawn. This is one part of the list. Single values are uncertain here, since repeats match poorly.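 Cells: ReNCell VM human fetal ventral-midbrain neural progenitors, differentiated mitogen-free. Blinded raters compared doublecortin-stained (early neurons) or tyrosine hydroxylase-stained (dopaminergic neurons) images with untreated wells, where 0 means no change. After repeats and both raters were averaged, compounds scoring 2 or above became hits for retesting.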

Each molecule was assayed on ReNCell VM (assay: neuronal differentiation score (DCX+ cell fraction vs untreated, manual image score) (score (-3 to 3)); higher = more neuronal differentiation). Settings: library: LOPAC; 2 uM; 2 weeks.

| Structure (SMILES) | neuronal differentiation score |
| --- | --- |
| CCCCN1CCC(n2c(=O)[nH]c3ccccc32)CC1 [NS 521 oxalate] | inactive: 0 |
| COc1ccc2c(c1)c(CC(=O)O)c(C)n2Cc1ccc(F)cc1 [1-(4-Fluorobenzyl)-5-methoxy-2-methylindole-3-acetic acid] | inactive: 0 |
| O=C(c1ccccc1)c1ccc2n1CCC2C(=O)O (stereo not given) [Ketorolac tris salt] | inactive: 0 |
| Cc1nc(N=Nc2cc(S(=O)(=O)O)c3cc([N+](=O)[O-])cc(S(=O)(=O)O)c3c2)c(COP(=O)(O)O)c(C=O)c1O [PPNDS tetrasodium] | inactive: 0 |

Same assay, conditions: library: Prestwick; 2 uM; 2 weeks

| Structure (SMILES) | neuronal differentiation score |
| --- | --- |
| CNC(=O)c1c(I)c(C(=O)NCC(=O)Nc2c(I)c(C(=O)O)c(I)c(C(=O)NCCO)c2I)c(I)c(N(C)C(C)=O)c1I [Ioxaglic acid] | inactive: 0 |
| CCCc1ncc(C[n+]2ccccc2C)c(N)n1 [Amprolium hydrochloride] | inactive: 0 |
| CO[C@@H]1[C@@H](O[C@@H]2O[C@H](C)[C@@H](O[C@H]3C[C@@](C)(O)[C@@H](OC(=O)CC(C)C)[C@H](C)O3)[C@H](N(C)C)[C@H]2O)[C@@H](CC=O)C[C@@H](C)[C@@H](O)/C=C/C=C/C[C@@H](C)OC(=O)C[C@H]1OC(C)=O [Josamycin] | inactive: 0 |
| Nc1nc(Cl)nc2c1ncn2[C@H]1C[C@H](O)[C@@H](CO)O1 [Cladribine] | inactive: 0 |
| Nc1ccn([C@@H]2O[C@H](CO)[C@@H](O)C2(F)F)c(=O)n1 [Gemcitabine] | inactive: 0 |
| Cc1c(N(C)C)c(=O)n(-c2ccccc2)n1C [Amidopyrine] | inactive: 0 |
| CN1CCCCC1CCN1c2ccccc2Sc2ccc([S+](C)[O-])cc21 (stereo not given) [Mesoridazine besylate] | inactive: 0 |
| CN(C(=O)C(Cl)Cl)c1ccc(OC(=O)c2ccco2)cc1 [Diloxanide furoate] | inactive: 0 |

Same assay, conditions: library: Spectrum; 2 uM; 2 weeks

| Structure (SMILES) | neuronal differentiation score |
| --- | --- |
| C=C1CCC(C2CC(=O)OC2=O)C(=O)CCC2C1CC2(C)C (stereo not given) | inactive: 0 |
| COc1ccc2oc(-c3ccccc3OC)cc(=O)c2c1 | inactive: 0 |
| COc1cc2oc3cc(OC)c(OC)c(CC=C(C)C)c3c(=O)c2c(OC)c1CC=C(C)C | inactive: 0 |
| Clc1ccc(CSC(Cn2ccnc2)c2ccc(Cl)cc2Cl)cc1 (stereo not given) | inactive: 0 |
| CC1(C)C=Cc2c(c3c(c4c(=O)c(-c5ccc(O)c(O)c5)coc24)OC(C)(C)CC3)O1 | inactive: 0 |
| Oc1cc2c(cc1O)C1c3ccc(O)c(O)c3OCC1(O)C2 (stereo not given) | inactive: 0 |
| Nc1nc(=O)[nH]cc1F | inactive: 0 |
| CCC(=O)O[C@]1(C(=O)CCl)[C@@H](C)C[C@H]2[C@@H]3CCC4=CC(=O)C=C[C@]4(C)[C@@]3(F)[C@@H](O)C[C@@]21C | inactive: 0 |
| C[C@@H](O)[C@H]1C(=O)N2C(C(=O)O)=C(SCCNC=N)C[C@H]12 | inactive: 1 |
| COc1cccc(-c2cc(=O)c3ccc(OC)cc3o2)c1 | inactive: 0 |
| CCOc1ccc2ccccc2c1C(=O)N[C@@H]1C(=O)N2[C@@H]1SC(C)(C)[C@@H]2C(=O)O | inactive: 0 |
| CCOC(=O)c1ccc(O)cc1 | inactive: 0 |
| C[Se]CC[C@H](N)C(=O)O | inactive: 0 |
| O=C(O)c1cc(/N=N/c2ccc(S(=O)(=O)Nc3ccccn3)cc2)ccc1O | inactive: 0 |
| CCN(CC)CCOc1ccc(C(=C(Cl)c2ccccc2)c2ccccc2)cc1 | inactive: 0 |
| C=C/C(C)=C\CC1C(C)(O)CCC2C(C)(C)CCCC21C (stereo not given) | inactive: 0 |
| CCCC(=O)Nc1ncnc2c1ncn2[C@@H]1O[C@@H]2COP(=O)(O)O[C@H]2[C@H]1OC(=O)CCC | inactive: 0 |
| COc1cc([S+](C)[O-])ccc1-c1nc2cccnc2[nH]1 (stereo not given) | inactive: 0 |

Same assay, conditions: library: Tocriscreen; 2 uM; 2 weeks

| Structure (SMILES) | neuronal differentiation score |
| --- | --- |
| Nc1[nH]nc2nnc(-c3c(-c4ccccc4)nn4ccccc34)cc12 | inactive: 0 |
| CC(C)[C@H](CO)Nc1nc(Nc2cc(N)cc(Cl)c2)c2ncn(C(C)C)c2n1 [Aminopurvalanol A] | inactive: 0 |
| C[C@@H](CN1CCC(Cc2ccccc2)CC1)[C@@H](O)c1ccc(O)cc1 [Ro 25-6981 maleate] | inactive: 0 |
| O=C(O)Cn1c(C(=O)Nc2nc(-c3ccccc3Cl)cs2)cc2ccccc21 | inactive: 0 |
| O=C(O)CC/C=C\C[C@H]1CO[C@@H](c2ccccc2Cl)O[C@H]1c1ccccc1O | inactive: 0 |
| CC[N+](CC)(CC)CC(=O)Nc1c(C)cccc1C [QX 314 chloride] | inactive: 0 |

Some of the entries so far, as comma-separated lines.
Structure (SMILES),neuronal differentiation score
C[C@@H](CN1CCC(Cc2ccccc2)CC1)[C@@H](O)c1ccc(O)cc1 [Ro 25-6981 maleate],inactive: 0
O=C(O)CC/C=C\C[C@H]1CO[C@@H](c2ccccc2Cl)O[C@H]1c1ccccc1O,inactive: 0

Each molecule was assayed on ReNCell VM (assay: dopaminergic neuron differentiation score (TH+ cell fraction vs untreated, manual image score) (score (0 to 3)); higher = more TH+ dopaminergic neuron differentiation). Settings: library: LOPAC; 2 uM; 4 weeks; BDNF 10 ng/ml + GDNF 10 ng/ml.

| Structure (SMILES) | dopaminergic neuron differentiation score |
| --- | --- |
| CCCCN1CCC(n2c(=O)[nH]c3ccccc32)CC1 [NS 521 oxalate] | inactive: 0 |
| COc1ccc2c(c1)c(CC(=O)O)c(C)n2Cc1ccc(F)cc1 [1-(4-Fluorobenzyl)-5-methoxy-2-methylindole-3-acetic acid] | inactive: 0 |
| O=C(c1ccccc1)c1ccc2n1CCC2C(=O)O (stereo not given) [Ketorolac tris salt] | inactive: 0 |
| Cc1nc(N=Nc2cc(S(=O)(=O)O)c3cc([N+](=O)[O-])cc(S(=O)(=O)O)c3c2)c(COP(=O)(O)O)c(C=O)c1O [PPNDS tetrasodium] | inactive: 0 |
